No constants are given. Whether binding was seen depends on the method and setting. Binding seen in cells or lysates may run through a third protein. These calls come from enrichment with a bait or labelling near it, and not all partners need be listed.
Target: Small ubiquitin-related modifier 2 (SUMO2) (human (endogenous in frontal cortex)) (UniProt P61956)
Test: affinity purification with mass spectrometry; IP with a mouse anti-SUMO 2/3 IgG and magnetic beads from nuclear lysates of frontal cortex of two FXTAS and two control cases; nuclei lysed and heated in an SDS/Triton/deoxycholate buffer, then diluted; 50 mM N-ethylmaleimide in the buffers; 4 °C; on-bead trypsin digestion, LC-MS/MS

Sequences of proteins named here, by UniProt entry; tags and fusion partners are left off. Residues count along the entry.
UniProt P63165, residues 1-97: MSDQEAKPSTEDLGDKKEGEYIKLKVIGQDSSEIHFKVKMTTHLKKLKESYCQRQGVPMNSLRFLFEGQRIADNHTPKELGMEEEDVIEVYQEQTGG
UniProt P06396, residues 28-782: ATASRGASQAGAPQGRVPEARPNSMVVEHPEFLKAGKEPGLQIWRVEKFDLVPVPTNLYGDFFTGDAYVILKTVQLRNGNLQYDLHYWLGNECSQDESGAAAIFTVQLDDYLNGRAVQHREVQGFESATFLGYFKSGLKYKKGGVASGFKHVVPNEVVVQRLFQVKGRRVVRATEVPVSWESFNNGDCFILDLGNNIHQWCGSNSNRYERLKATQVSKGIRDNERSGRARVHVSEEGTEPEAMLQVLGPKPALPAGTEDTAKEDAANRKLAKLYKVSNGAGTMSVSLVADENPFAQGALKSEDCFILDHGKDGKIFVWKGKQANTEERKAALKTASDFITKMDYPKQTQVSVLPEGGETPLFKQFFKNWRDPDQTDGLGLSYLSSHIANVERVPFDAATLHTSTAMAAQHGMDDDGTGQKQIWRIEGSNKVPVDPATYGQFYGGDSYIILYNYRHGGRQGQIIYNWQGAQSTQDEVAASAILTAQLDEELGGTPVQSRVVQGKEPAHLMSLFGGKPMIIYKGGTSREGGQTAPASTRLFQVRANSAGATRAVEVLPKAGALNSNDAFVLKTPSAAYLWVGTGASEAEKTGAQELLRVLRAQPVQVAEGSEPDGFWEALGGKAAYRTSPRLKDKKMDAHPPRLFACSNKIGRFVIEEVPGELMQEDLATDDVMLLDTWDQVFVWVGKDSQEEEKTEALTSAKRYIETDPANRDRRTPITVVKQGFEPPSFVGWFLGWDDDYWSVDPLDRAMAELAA
UniProt Q7Z7K6: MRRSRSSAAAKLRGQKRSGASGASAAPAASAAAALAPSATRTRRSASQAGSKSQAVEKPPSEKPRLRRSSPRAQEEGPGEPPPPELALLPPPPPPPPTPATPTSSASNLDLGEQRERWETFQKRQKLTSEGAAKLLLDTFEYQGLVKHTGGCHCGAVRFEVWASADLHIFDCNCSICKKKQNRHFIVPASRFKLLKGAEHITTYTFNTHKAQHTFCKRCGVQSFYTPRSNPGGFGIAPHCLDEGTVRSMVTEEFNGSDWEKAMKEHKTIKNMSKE
UniProt P07737: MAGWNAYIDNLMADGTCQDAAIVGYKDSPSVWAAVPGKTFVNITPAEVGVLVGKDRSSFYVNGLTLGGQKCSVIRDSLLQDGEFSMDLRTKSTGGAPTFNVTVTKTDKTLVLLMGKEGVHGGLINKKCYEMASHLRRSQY
UniProt P13010: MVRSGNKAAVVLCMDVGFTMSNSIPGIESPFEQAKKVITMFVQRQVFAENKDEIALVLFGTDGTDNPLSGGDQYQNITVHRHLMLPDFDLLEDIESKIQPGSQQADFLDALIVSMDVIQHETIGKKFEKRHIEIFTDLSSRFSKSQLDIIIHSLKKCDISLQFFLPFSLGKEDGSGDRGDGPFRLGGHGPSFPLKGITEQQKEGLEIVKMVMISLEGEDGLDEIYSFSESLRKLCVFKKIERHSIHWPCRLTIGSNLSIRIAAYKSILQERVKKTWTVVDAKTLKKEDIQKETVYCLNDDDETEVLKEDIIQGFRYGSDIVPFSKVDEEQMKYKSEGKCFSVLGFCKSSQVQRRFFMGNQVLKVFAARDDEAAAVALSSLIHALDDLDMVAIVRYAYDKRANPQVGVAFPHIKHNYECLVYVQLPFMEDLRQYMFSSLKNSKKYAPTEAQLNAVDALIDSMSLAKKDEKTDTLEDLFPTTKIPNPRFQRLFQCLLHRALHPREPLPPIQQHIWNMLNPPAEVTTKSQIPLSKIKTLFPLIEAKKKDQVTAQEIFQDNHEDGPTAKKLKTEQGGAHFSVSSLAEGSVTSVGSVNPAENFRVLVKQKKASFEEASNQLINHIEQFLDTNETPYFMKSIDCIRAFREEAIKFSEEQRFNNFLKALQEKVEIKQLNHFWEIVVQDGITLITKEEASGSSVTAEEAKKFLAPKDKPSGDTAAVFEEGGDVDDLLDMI
UniProt P12277: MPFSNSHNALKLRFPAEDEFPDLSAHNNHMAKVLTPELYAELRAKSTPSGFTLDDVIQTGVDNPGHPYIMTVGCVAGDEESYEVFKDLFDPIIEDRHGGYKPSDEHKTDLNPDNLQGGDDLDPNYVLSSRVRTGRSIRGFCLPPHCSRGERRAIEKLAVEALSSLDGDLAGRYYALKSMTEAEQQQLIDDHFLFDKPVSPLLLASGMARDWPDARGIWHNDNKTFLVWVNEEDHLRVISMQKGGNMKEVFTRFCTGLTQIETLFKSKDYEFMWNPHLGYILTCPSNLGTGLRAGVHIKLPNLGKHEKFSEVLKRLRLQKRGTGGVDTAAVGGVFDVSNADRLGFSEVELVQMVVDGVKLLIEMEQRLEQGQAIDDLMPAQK
UniProt P12956: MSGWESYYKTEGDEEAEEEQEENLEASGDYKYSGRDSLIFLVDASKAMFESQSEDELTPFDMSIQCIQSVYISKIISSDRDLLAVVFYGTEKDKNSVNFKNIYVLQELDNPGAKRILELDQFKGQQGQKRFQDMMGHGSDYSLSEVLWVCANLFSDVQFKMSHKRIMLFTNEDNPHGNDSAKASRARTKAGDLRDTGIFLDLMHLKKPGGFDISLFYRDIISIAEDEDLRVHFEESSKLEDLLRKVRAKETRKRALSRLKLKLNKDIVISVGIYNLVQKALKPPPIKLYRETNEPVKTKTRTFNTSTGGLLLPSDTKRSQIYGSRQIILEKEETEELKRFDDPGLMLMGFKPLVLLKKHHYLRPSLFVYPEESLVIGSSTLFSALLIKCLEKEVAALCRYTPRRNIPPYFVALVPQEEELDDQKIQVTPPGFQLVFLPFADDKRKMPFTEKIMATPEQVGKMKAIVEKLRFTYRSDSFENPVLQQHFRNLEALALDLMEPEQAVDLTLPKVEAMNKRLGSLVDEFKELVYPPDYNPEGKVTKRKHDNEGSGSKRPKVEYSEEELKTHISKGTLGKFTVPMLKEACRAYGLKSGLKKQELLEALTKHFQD
UniProt P09874: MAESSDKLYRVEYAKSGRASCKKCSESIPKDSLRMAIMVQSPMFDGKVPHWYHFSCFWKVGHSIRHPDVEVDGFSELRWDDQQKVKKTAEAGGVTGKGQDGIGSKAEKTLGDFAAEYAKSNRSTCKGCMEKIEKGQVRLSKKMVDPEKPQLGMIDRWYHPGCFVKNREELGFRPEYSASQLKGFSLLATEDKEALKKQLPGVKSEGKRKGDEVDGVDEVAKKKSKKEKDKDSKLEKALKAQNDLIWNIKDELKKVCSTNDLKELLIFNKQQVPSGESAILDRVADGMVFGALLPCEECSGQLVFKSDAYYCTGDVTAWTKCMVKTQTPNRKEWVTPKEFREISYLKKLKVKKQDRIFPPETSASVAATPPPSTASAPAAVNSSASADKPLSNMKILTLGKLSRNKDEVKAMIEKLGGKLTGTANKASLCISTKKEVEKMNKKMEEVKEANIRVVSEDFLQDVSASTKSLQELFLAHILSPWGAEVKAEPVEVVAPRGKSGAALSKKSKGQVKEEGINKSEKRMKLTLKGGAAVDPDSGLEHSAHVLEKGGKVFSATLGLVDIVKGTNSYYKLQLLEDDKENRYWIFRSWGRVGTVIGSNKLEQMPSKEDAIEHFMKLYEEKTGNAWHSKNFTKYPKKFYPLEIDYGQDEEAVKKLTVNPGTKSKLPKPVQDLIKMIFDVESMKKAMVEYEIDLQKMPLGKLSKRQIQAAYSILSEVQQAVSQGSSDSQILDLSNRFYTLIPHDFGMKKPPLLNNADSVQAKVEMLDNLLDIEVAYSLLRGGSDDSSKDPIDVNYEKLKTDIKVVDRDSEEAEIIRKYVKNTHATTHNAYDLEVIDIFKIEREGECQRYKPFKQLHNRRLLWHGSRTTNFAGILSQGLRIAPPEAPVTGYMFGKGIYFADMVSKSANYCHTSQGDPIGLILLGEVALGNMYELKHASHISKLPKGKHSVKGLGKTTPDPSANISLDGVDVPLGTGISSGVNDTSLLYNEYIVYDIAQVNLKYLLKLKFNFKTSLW

Row | Molecule | binding
1 | Small ubiquitin-related modifier 1 (SUMO1) (from UniProt P63165 1-97) | binds
2 | Gelsolin (GSN) (from UniProt P06396 28-782) | binds
3 | Centromere protein V (CENPV) (from UniProt Q7Z7K6 1-275) | binds
4 | Profilin-1 (PROF1) (from UniProt P07737 1-140) | binds
5 | X-ray repair cross-complementing protein 5 (XRCC5) (from UniProt P13010 1-732) | binds
6 | Creatine kinase B-type (KCRB) (from UniProt P12277 1-381) | binds
7 | p62/sequestosome-1 (p62/SQSTM1) (from UniProt Q13501 1-440) | binds
8 | X-ray repair cross-complementing protein 6 (XRCC6) (from UniProt P12956 1-609) | binds
9 | Poly [ADP-ribose] polymerase 1 (PARP1) (from UniProt P09874 1-1014) | binds
10 | Isocitrate dehydrogenase [NADP] (IDHP) (protein, UniProt P48735 40-452) ADKRIKVAKPVVEMDGDEMTRIIWQFIKEKLILPHVDIQLKYFDLGLPNRDQTDDQVTIDSALATQKYSVAVKCATITPDEARVEEFKLKKMWKSPNGTIRNILGGTVFREPIICKNIPRLVPGWTKPITIGRHAHGDQYKATDFVADRAGTFKMVFTPKDGSGVKEWEVYNFPAGGVGMGMYNTDESISGFAHSCFQYAIQKKWPLYMSTKNTILKAYDGRFKDIFQEIFDKHYKTDFDKNKIWYEHRLIDDMVAQVLKSSGGFVWACKNYDGDVQSDILAQGFGSLGLMTSVLVCPDGKTIEAEAAHGTVTRHYREHQKGRPTSTNPIASIFAWTRGLEHRGKLDGNQDLIRFAQMLEKVCVETVESGAMTKDLAGCIHGLSNVKLNEHFLNTTDFLDTIKSNLDRALGRQ | binds
11 | ATP-dependent RNA helicase (DDX1) (protein, UniProt Q92499 1-740) MAAFSEMGVMPEIAQAVEEMDWLLPTDIQAESIPLILGGGDVLMAAETGSGKTGAFSIPVIQIVYETLKDQQEGKKGKTTIKTGASVLNKWQMNPYDRGSAFAIGSDGLCCQSREVKEWHGCRATKGLMKGKHYYEVSCHDQGLCRVGWSTMQASLDLGTDKFGFGFGGTGKKSHNKQFDNYGEEFTMHDTIGCYLDIDKGHVKFSKNGKDLGLAFEIPPHMKNQALFPACVLKNAELKFNFGEEEFKFPPKDGFVALSKAPDGYIVKSQHSGNAQVTQTKFLPNAPKALIVEPSRELAEQTLNNIKQFKKYIDNPKLRELLIIGGVAARDQLSVLENGVDIVVGTPGRLDDLVSTGKLNLSQVRFLVLDEADGLLSQGYSDFINRMHNQIPQVTSDGKRLQVIVCSATLHSFDVKKLSEKIMHFPTWVDLKGEDSVPDTVHHVVVPVNPKTDRLWERLGKSHIRTDDVHAKDNTRPGANSPEMWSEAIKILKGEYAVRAIKEHKMDQAIIFCRTKIDCDNLEQYFIQQGGGPDKKGHQFSCVCLHGDRKPHERKQNLERFKKGDVRFLICTDVAARGIDIHGVPYVINVTLPDEKQNYVHRIGRVGRAERMGLAISLVATEKEKVWYHVCSSRGKGCYNTRLKEDGGCTIWYNEMQLLSEIEEHLNCTISQVEPDIKVPVDEFDGKVTYGQKRAAGGGSYKGHVDILAPTVQELAALEKEAQTSFLHLGYLPNQLFRTF | binds
12 | Alpha-crystallin B chain (CRYAB) (protein, UniProt P02511 1-175) MDIAIHHPWIRRPFFPFHSPSRLFDQFFGEHLLESDLFPTSTSLSPFYLRPPSFLRAPSWFDTGLSEMRLEKDRFSVNLDVKHFSPEELKVKVLGDVIEVHGKHEERQDEHGFISREFHRKYRIPADVDPLTITSSLSSDGVLTVNGPRKQVSGPERTIPITREEKPAVTAAPKK | binds
13 | Carbonyl reductase [NADPH] 1 (CBR1) (protein, UniProt P16152 1-277) MSSGIHVALVTGGNKGIGLAIVRDLCRLFSGDVVLTARDVTRGQAAVQQLQAEGLSPRFHQLDIDDLQSIRALRDFLRKEYGGLDVLVNNAGIAFKVADPTPFHIQAEVTMKTNFFGTRDVCTELLPLIKPQGRVVNVSSIMSVRALKSCSPELQQKFRSETITEEELVGLMNKFVEDTKKGVHQKEGWPSSAYGVTKIGVTVLSRIHARKLSEQRKGDKILLNACCPGWVRTDMAGPKATKSPEEGAETPVYLALLPPDAEGPHGQFVSEKRVEQW | binds
14 | 14-3-3 protein theta (1433T) (protein, UniProt P27348 1-245) MEKTELIQKAKLAEQAERYDDMATCMKAVTEQGAELSNEERNLLSVAYKNVVGGRRSAWRVISSIEQKTDTSDKKLQLIKDYREKVESELRSICTTVLELLDKYLIANATNPESKVFYLKMKGDYFRYLAEVACGDDRKQTIDNSQGAYQEAFDISKKEMQPTHPIRLGLALNFSVFYYEILNNPELACTLAKTAFDEAIAELDTLNEDSYKDSTLIMQLLRDNLTLWTSDSAGEECDAAEGAEN | binds
